Laboratory results published in PubChem BioAssay AID504834 (National Center for Advancing Translational Sciences (NCATS), 2011).
Screen size: about 320,000 compounds; about 22,000 (6.9%) were called active. Inconclusive results, whose numbers are uncertain, are shown with a selection of clear calls. Calls come from the whole dose curve; as a rule, active = well fitted inhibition curve with a large enough effect; inconclusive = small, poorly fitted or top-dose-only effect, or another doubt; inactive = no such curve, though single readings can be large or run the other way. Potencies beside an inconclusive call are fits to weak or partial responses and may not hold up.

Test: Primary qHTS for delayed death inhibitors of the malarial parasite plastid, 96 hour incubation
Details: P. falciparum luciferase reporter growth; series mostly up to 28.7 µM
Outline: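 Erythrocytes infected with luciferase-expressing P. falciparum were dispensed at 2% hematocrit and 0.05% parasitemia (final), then incubated with compounds 96 hours at 37 C in 5% CO2. Luminescence after detection reagent addition reported growth.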
Potency is the fitted concentration of half-maximal effect.

| Structure (SMILES) | Potency |
| --- | --- |
| CCc1c(C2(O)CCCCC2)[nH]c2cc(C(F)(F)F)ccc12 | inconclusive: 18.5 µM [inhibitor, single point] |
| Cc1ccc2nc(-c3ccccc3)cc(C(=O)N3CCc4ccccc4C3)c2c1 | active: 11.7 µM |
| CC(C)CC(=O)N1CCN(S(=O)(=O)c2ccc(C3CCCCC3)cc2)CC1 | inactive |
| COc1ccc(C(=O)NCC(=O)N/N=C/c2c(C)[nH]c3ccccc23)cc1 | inconclusive: 18.5 µM [inhibitor, single point] |
| O=C(O)CN1C(=O)COc2cc(S(=O)(=O)N3CCCC3)ccc21 | inconclusive: 18.5 µM [inhibitor, single point] |
| O=C(COC(=O)c1ccc([N+](=O)[O-])s1)Nc1ncc(C(F)(F)F)cc1Cl | inactive |
| COc1ccc(C(C)(C)C)cc1NC(=O)CCc1c(C)noc1C | inconclusive: 20.8 µM [inhibitor, partial curve, poor fit] |
| Cc1cccc2cc3c(N)c(C(=O)N4CCc5ccccc54)sc3nc12 | inconclusive: 18.5 µM [inhibitor, single point] |
| Cc1ccc(NC(=O)C2CC(c3ccc(F)cc3)=NO2)cc1 (configuration not stated) | active: 4.15 µM |
| CC1CCCC(C)N1c1nnc(N)s1 (configuration not stated) | inactive |
| Clc1ccc(NC2=NCCC2)cc1Cl | inconclusive: 18.5 µM [inhibitor, single point] |
| CCN(CC)c1ccc(NC(=O)c2ccc(Cl)nc2)cc1 | inconclusive: 18.5 µM [inhibitor, partial curve, poor fit] |
| FC(F)(F)c1cc(NC2CCCCC2)ccn1 | inconclusive: 0.0828 µM [inhibitor, full curve, poor fit] |
| Cc1ccc(S(=O)(=O)NCc2cccnc2)cc1C(=O)NC1CCCCC1 | inconclusive: 5.86 µM [inhibitor, partial curve, poor fit] |
| O=C(COC(=O)C1(c2ccccc2)CCCC1)N1CCNC1=O | inconclusive: 14.7 µM [inhibitor, partial curve] |
| CCCOc1ccc(CC(=O)N/N=C\c2ccc(F)cc2)cc1 | inactive |
| COc1ccc(OCc2cc(C(=O)N3CCOCC3)no2)c(Cl)c1 | inactive |
| CCOc1ccc(CN2CCC(C(=O)Nc3cccc(-c4ccn[nH]4)c3)CC2)cc1Cl | inconclusive: 18.5 µM [inhibitor, single point] |
| COc1ccccc1Oc1ccc(N/C=C/C(=O)c2ccco2)cc1 | inactive |
| CCn1c(SCc2ccccc2)nc2c(c1=O)SCC2 | inconclusive: 13.1 µM [inhibitor, partial curve, poor fit] |
| CC(=O)c1ccc(Nc2cc(C)nc3ncnn23)cc1 | inactive |
| COCCn1c(SCC(=O)N2CCC(C)CC2)nc2c([nH]c3ccccc32)c1=O | inconclusive: 16.5 µM [inhibitor, partial curve, poor fit] |
| CSc1nc(NC(C)(C)C)nc(Oc2ccc(=O)[nH]n2)n1 | inconclusive: 11.7 µM [inhibitor, single point] |
| O=C(Nc1ccc(N2CCOCC2)cc1)c1cc(F)c(F)cc1Cl | inactive |

| Structure (SMILES) | Potency |
| --- | --- |
| Cc1ccc(C(=O)O/N=C(\N)c2ccccn2)c(Cl)c1 | inconclusive: 4.15 µM [inhibitor, single point] |
| Cc1cc(C)c2cc(CN(Cc3ccco3)C(=S)NCC3CCCO3)c(=O)[nH]c2c1 (configuration not stated) | inconclusive: 9.28 µM [inhibitor, single point] |
| CCCCC(OC(=O)c1ccco1)C(=O)NCc1ccc(C)cc1 (configuration not stated) | inactive |
| CN1CCc2c(n(CC(O)CNCc3ccccc3)c3ccccc23)C1=O (configuration not stated) | inactive |
| COc1ccccc1CNC(=O)c1ccc(N2CCOCC2)c([N+](=O)[O-])c1 | inconclusive: 1.31 µM [inhibitor, single point] |
| CC(NC(=O)/C(=C/c1cccc([N+](=O)[O-])c1)NC(=O)c1ccco1)C(=O)O (configuration not stated) | inconclusive: 2.62 µM [inhibitor, partial curve, poor fit] |
| O=C(NCCc1ccc(Cl)cc1)C1CCN(S(=O)(=O)N2CCCC2)CC1 | inconclusive: 18.5 µM [inhibitor, single point] |
| COc1ccc(OC)c(C2c3c(oc4ccccc4c3=O)C(=O)N2CCCN(C)C)c1 (configuration not stated) | inconclusive: 0.0928 µM [inhibitor, full curve, poor fit] |
| C=CCN(CC=C)CCOc1ccc(C)cc1[N+](=O)[O-] | inconclusive: 7.38 µM [inhibitor, partial curve, poor fit] |
| Cc1ccc(C(=O)NC(=S)NCc2cccnc2)c(C)c1 | inactive |
| COc1ccc(CCNC(=O)C2(C)CCC(=O)N2Cc2ccc(C)cc2)cc1OC (configuration not stated) | inconclusive: 10.4 µM [inhibitor, single point] |
| Cc1ccc(NC(=O)CS(=O)CC(=O)N(CC(=O)NC(C)(C)C)c2cccc(C)c2C)cc1 (configuration not stated) | inactive |
| CN(C)c1ccc(C2=NOC(CN3C(=O)c4ccccc4S3(=O)=O)C2)cc1 (configuration not stated) | inactive |
| Cc1ccc(C(=O)N/C(N)=N/c2nc3ccccc3o2)cc1 | inactive |
| O=C(O)c1ccc(Cl)c(S(=O)(=O)Nc2ccccc2Cc2ccccc2)c1 | inactive |
| NC(=O)/C(N=Nc1ccccc1)=N/Nc1ccccc1 | inconclusive: 18.5 µM [inhibitor, single point] |
| Cc1cccc(Cn2c(SCC(=O)Nc3ccccc3)nc3c2c(=O)[nH]c(=O)n3C)c1 | inconclusive: 10.4 µM [inhibitor, partial curve, poor fit] |
| O=C(Nc1cccnc1)c1ccc2c(c1)C(=O)N(CC1CCCO1)C2=O (configuration not stated) | inactive |
| CC(=O)NS(=O)(=O)c1ccc(NS(=O)(=O)c2ccccc2[N+](=O)[O-])cc1 | inactive |
| Cc1ccc(N2CC(C(=O)Nc3cc(C)on3)CC2=O)cc1 (configuration not stated) | inactive |
| CCN(CC)CCN(C(=O)Cn1nnc(-c2ccc(OC)c(OC)c2)n1)C(C(=O)NC1CCCC1)c1ccc(F)cc1 (configuration not stated) | inactive |
| O=C(NC1CCSc2ccccc21)c1cc(S(=O)(=O)N2CCOCC2)ccc1F (configuration not stated) | inactive |
| Cc1oc(-c2ccccc2Cl)nc1CSCC(=O)NC1CC1 | inconclusive: 0.329 µM [inhibitor, full curve, poor fit] |

3 structures from above, arranged by molar mass, smallest number first:

| Structure (SMILES) | Potency |
| --- | --- |
| Cc1ccc(N2CC(C(=O)Nc3cc(C)on3)CC2=O)cc1 (configuration not stated) | inactive |
| CC(NC(=O)/C(=C/c1cccc([N+](=O)[O-])c1)NC(=O)c1ccco1)C(=O)O (configuration not stated) | inconclusive: 2.62 µM [inhibitor, partial curve, poor fit] |
| O=C(NC1CCSc2ccccc21)c1cc(S(=O)(=O)N2CCOCC2)ccc1F (configuration not stated) | inactive |
